Binding signal data for 42 sequences are collected here from paper PMC7819943, “Rice protein-binding microarrays: a tool to detect cis-acting elements near promoter regions in rice”.

Amino acid sequences for entries named in this document (tags omitted).
UniProt Q0JBA9, entry or part of it: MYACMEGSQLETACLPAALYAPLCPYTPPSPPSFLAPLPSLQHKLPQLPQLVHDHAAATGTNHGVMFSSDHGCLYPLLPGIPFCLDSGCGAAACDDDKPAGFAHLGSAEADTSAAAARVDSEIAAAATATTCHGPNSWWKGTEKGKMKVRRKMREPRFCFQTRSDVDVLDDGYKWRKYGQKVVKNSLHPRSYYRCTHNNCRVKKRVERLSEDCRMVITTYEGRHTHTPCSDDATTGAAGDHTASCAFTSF

Some of the results follow.

The test concerns the target OsWRKY34 (Oryza sativa, UniProt Q0JBA9 1-250). Description: protein-binding microarray (RPBM); PBS, 2% BSA, 51.3 ng/ul salmon testes DNA, 50 uM zinc acetate, 200 nM TF, 25 C, 1 h; high values mean tight binding. As to conditions: protein: recombinant; tags: N-terminal polyhistidine and DsRed monomer fusion (pET32a); label: CyDye5-dUTP incorporated in the synthesized complementary strand; 3' TTTTT single-stranded linker to array surface; dsDNA, one strand shown. Put shortly: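 Binding signal is reported as fluorescence intensity per feature (arbitrary units) from an Axon 4000B scanner. Incubation used 200 nM of each Ni–NTA-purified, N-terminally polyhistidine- and DsRed-fused transcription factor from E. coli BL21-CodonPlus on a double-stranded custom Agilent array for 1 h at 25 °C, with 50 µM zinc acetate in the buffer, followed by washing.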
“CTCTCGTGTTCTCTCCCAATCTCTTCTTGCGGCGGAAGCACGGAGTCACCTAGTGCAG”: the binding signal is 8320 fluorescence intensity (a.u.).
For the sequence “AGAGAAACATGTCATTATCATATACTCCTTTCATCCTATACGGAGTCACCTAGTGCAG”, the binding signal is 8460 fluorescence intensity (a.u.).
As to “ACATTGTTATCTACTATCTGTTTATATGGTTTTCTACTTCCGGAGTCACCTAGTGCAG”, the binding signal is 8340 fluorescence intensity (a.u.).
Then “AATTTCTGATTGTTTGTCAGTTCAGCGTTGATGCTGTAATCGGAGTCACCTAGTGCAG”, with 8510 fluorescence intensity (a.u.).
Next, “ATTTTTATTCTCTCTCTCCCGACTCCCGAGCCGTATCATCCGGAGTCACCTAGTGCAG”: 8840 fluorescence intensity (a.u.); “ACACGAGCTTCTCCGCCCTCTTGTCCTTCGGTCAGCACCGCGGAGTCACCTAGTGCAG”: 12000 fluorescence intensity (a.u.); “AATGTTTGACACCGTTGATTTTTTTAGCACATGTTTCACCCGGAGTCACCTAGTGCAG”: 8960 fluorescence intensity (a.u.).
For the sequence “TTCATATACACATATAGTTTTACATATTTCATATTTTTTTCGGAGTCACCTAGTGCAG”, the binding signal was 9360 fluorescence intensity (a.u.).
Take “ACACTGTCTTCTCTCTCTCTCTCTCTCTCTCTCTCTGCTTCGGAGTCACCTAGTGCAG”: the binding signal was 11900 fluorescence intensity (a.u.).
In the case of “CTCCGCGCCGCGGCCGCCTCCCTCGACTCCGGCGACCACCCGGAGTCACCTAGTGCAG”, the binding signal was 8330 fluorescence intensity (a.u.).
On to “GTGTGTGCCTGTGTAGTACACGCTATTCTTCTTACCTTGTCGGAGTCACCTAGTGCAG”, for which the binding signal was 9010 fluorescence intensity (a.u.).
Take “AACGATTTCCTGCTGTCCTTCGTCGTTTCGTTTAGCATATCGGAGTCACCTAGTGCAG”: the binding signal was 11600 fluorescence intensity (a.u.).
Turning to “TTGGTTTTTGGTTGACAGAAGGATTTTTCTCGCCTTTTTTCGGAGTCACCTAGTGCAG”, the binding signal is 8560 fluorescence intensity (a.u.).
Then “TGGTTTGCATCTCTTCTTGCTCTTTGGAGGATTTACTACTCGGAGTCACCTAGTGCAG”, with 9510 fluorescence intensity (a.u.).
As for “TCCTTTCTGTTTCAACCATAGGCCCATTAGGCCCACGTACCGGAGTCACCTAGTGCAG”, the binding signal was 8850 fluorescence intensity (a.u.).
In the case of “TCTCGTTGTCGTCATCATATTTGGATCTCCTATGGCATTTCGGAGTCACCTAGTGCAG”, the binding signal was 8110 fluorescence intensity (a.u.).
On to “CATTTTTTCGGCTTCCATCGGCCGCACTTTTGACAGCATTCGGAGTCACCTAGTGCAG”, for which the binding signal was 11500 fluorescence intensity (a.u.).
Then “CTCCTACTCGGCGCACGTCCATGTCGTCTTCATCCTCAACCGGAGTCACCTAGTGCAG”, with 8910 fluorescence intensity (a.u.); and “GCTCTCACTCTCTCTCTAGATCTCTCTCTCTCTCCTACTGCGGAGTCACCTAGTGCAG”, with 9920 fluorescence intensity (a.u.).
Consider “CCCCTGCCTGCATCAACCCTCATATGTTGTCCTTGGCGAACGGAGTCACCTAGTGCAG”, for which the binding signal is 10900 fluorescence intensity (a.u.).
As for “CGTGCAACCTCAACCACTCCCACCTCTACCTTATCTCTTCCGGAGTCACCTAGTGCAG”, the binding signal was 9010 fluorescence intensity (a.u.).
With “TCTGACTCCTTGCACCTCTATTGGATTTTTTTGGTCACTTCGGAGTCACCTAGTGCAG”, the binding signal was 8030 fluorescence intensity (a.u.).
Then “CCCAGCAACTCGTACACCTCCCGGTGCATCACAAATTCCTCGGAGTCACCTAGTGCAG”, with 8920 fluorescence intensity (a.u.); and “GTGGCCACCGTGGGCCCCACCATTTCTAAATTAATTTTTTCGGAGTCACCTAGTGCAG”, with 10800 fluorescence intensity (a.u.).
In the case of “TATTTTTTACCCGGCCTCAACATCCAACTGGGATATTTTACGGAGTCACCTAGTGCAG”, the binding signal is 10600 fluorescence intensity (a.u.).
Turning to “TGGAGATGAGTATGCACTAACCTGCCTATATTTTTTTTCTCGGAGTCACCTAGTGCAG”, the binding signal is 9450 fluorescence intensity (a.u.).
With “CTTCCTCCGTCACCATCAGCTCCCCGCGCGCGCGTGCATACGGAGTCACCTAGTGCAG”, the binding signal is 9440 fluorescence intensity (a.u.).
Next, “CCCATCTCGAGTGCCATCCTCTTCTCAATGAGAGTAACCACGGAGTCACCTAGTGCAG”: 8220 fluorescence intensity (a.u.); “GTTTCTGTACTTGCAACCCTCAGTTTGATGAGCGAGTCCACGGAGTCACCTAGTGCAG”: 8890 fluorescence intensity (a.u.); “CGGCGGCGAGTAGGGCCAGCGCTCGAGCGTGGTGGGGCGGCGGAGTCACCTAGTGCAG”: 8370 fluorescence intensity (a.u.).
Consider “CGGTTTGGTTTCGATTTATTTTAGAATTTTGGCACTTTTCCGGAGTCACCTAGTGCAG”, for which the binding signal is 10800 fluorescence intensity (a.u.).
Regarding “AGTGTACTTTTCCCTTCCTTGTTTGTGAGCTCACCGAGCTCGGAGTCACCTAGTGCAG”, the binding signal is 8410 fluorescence intensity (a.u.).
For “CCAGTGGGCGGGCTCTCTCCCTCTTCCTCCTCCGCTCCGCCGGAGTCACCTAGTGCAG”, the binding signal is 10000 fluorescence intensity (a.u.).
Turning to “AGCTGTGTTTTTCAGCTTCTAGGTTCTAGTTCGTTTTTTGCGGAGTCACCTAGTGCAG”, the binding signal was 10400 fluorescence intensity (a.u.).
On to “GATTCCCGATTCGCAGTCGGTTCTCTGGTCGCCTACATATCGGAGTCACCTAGTGCAG”, for which the binding signal was 8800 fluorescence intensity (a.u.).
For the sequence “CCTAATCATCCCTATCAACACACCTAAGCTCACCAAATTCCGGAGTCACCTAGTGCAG”, the binding signal is 8620 fluorescence intensity (a.u.).
Take “ATCATCCATATCCAGCTATACTATACTACTCGATCCCTTCCGGAGTCACCTAGTGCAG”: the binding signal is 10200 fluorescence intensity (a.u.).
As to “CACGACACGCATGAAGCACCTTGCAACCACCACCGTCCTCCGGAGTCACCTAGTGCAG”, the binding signal is 8200 fluorescence intensity (a.u.).
For the sequence “TTTGGGGTTTGAGAAGGTTGAGGAGGAGTTGGGAGGTTGACGGAGTCACCTAGTGCAG”, the binding signal is 9580 fluorescence intensity (a.u.).
As to “AATCCCTATTGCCTACAAATGCACGTTCACATTGTCGTCACGGAGTCACCTAGTGCAG”, the binding signal is 8890 fluorescence intensity (a.u.).
As to “TTCTGAATGTGATCACCTGACAAATTTGTTCAGAGTTATCCGGAGTCACCTAGTGCAG”, the binding signal was 9600 fluorescence intensity (a.u.).
Turning to “TCTCGAACGTTCTATTTTAATTTCCCTGACACGTTCGTCTCGGAGTCACCTAGTGCAG”, the binding signal was 8790 fluorescence intensity (a.u.).
